The values below come from US20050037969A1.

Results are given in words; binding and its absence hold for the method and conditions named. Binding can be weak; no strength is given.

The labels stand for the following.
B1: CD38 C-terminal peptide AA8L, biotinylated (peptide)
peptide: PDKFLQCVKNPEDSSCTSEI
modifications: chain 1: biotin at the amino-terminus
B2: Clasp-4 C-terminal peptide AA3L, biotinylated (peptide)
peptide: CAISGTSSDRGYGSPRYAEV
modifications: biotin at the amino-terminus
B3: VCAM1 C-terminal peptide AA17L, biotinylated (peptide)
peptide: ARKANMKGSYSLVEAQKSKV
modifications: biotin at the amino-terminus
B4: Glycophorin C C-terminal peptide AA37L, biotinylated (peptide)
peptide: QGDPALQDAGDSSRKEYFI
modifications: biotin at the amino-terminus
B5: CD98 C-terminal peptide AA15L, biotinylated (peptide)
peptide: ERLKLEPHEGLLLRFPYAA
modifications: chain 1: biotin at the amino-terminus
B6: DNAM-1 C-terminal peptide AA22L, biotinylated (peptide)
peptide: TREDIYVNYPTFSRRPKTRV
modifications: biotin at the amino-terminus
B7: KV1.3 C-terminal peptide AA33L, biotinylated (peptide)
peptide: TTNNNPNSAVNIKKIFTDV
modifications: biotin at the amino-terminus
B8: CD3n C-terminal peptide AA4L, biotinylated (peptide)
peptide: SVFSIPTLWSPWPPSSSSQL
modifications: biotin at the amino-terminus
B9: CD95 (Fas) C-terminal peptide AA13L, biotinylated (peptide)
peptide: KDITSDSENSNFRNEIQSLV
modifications: biotin at the amino-terminus
B10: LPAP C-terminal peptide AA30L, biotinylated (peptide)
peptide: AWDDSARAAGGQGLHVTAL
modifications: biotin at the amino-terminus
B11: Clasp-2 C-terminal peptide AA2L, biotinylated (peptide)
peptide: ISGTPTSTMVHGMTSSSSVV
modifications: biotin at the amino-terminus
B12: CD34 C-terminal peptide AA7L, biotinylated (peptide)
peptide: QATSENGHSARQHVVADTEL
modifications: biotin at the amino-terminus
B13: CDW128B (IL8RB) C-terminal peptide AA29.2L, biotinylated (peptide)
peptide: KDSRPSFVGSSSGHTSTTL
modifications: biotin at the amino-terminus
B14: CD83 C-terminal peptide AA47L, biotinylated (peptide)
peptide: VTSPNKHLGLVTPHKTELV
modifications: biotin at the amino-terminus
B15: CD46 (Form 1) C-terminal peptide AA10L, biotinylated (peptide)
peptide: KKGTYLTDETHREVKFTSL
modifications: biotin at the amino-terminus
B16: DOCK2 C-terminal peptide AA40L, biotinylated (peptide)
peptide: LASKSAEEGKQIPDSLSTDL
modifications: biotin at the amino-terminus
B17: Spectrin (beta) C-terminal peptide AA32L, biotinylated (peptide)
peptide: SFPPCGHRENVPGQSLVSFV
modifications: biotin at the amino-terminus
B18: Clasp-1 C-terminal peptide AA1L, biotinylated (peptide)
peptide: ISKATPALPTVSISSSAEV
modifications: biotin at the amino-terminus
B19: CDW128A (IL8RA) C-terminal peptide AA29.1L, biotinylated (peptide)
peptide: ARHRVTSYTSSSVNVSSNL
modifications: biotin at the amino-terminus
B20: BLR-1 C-terminal peptide AA45L, biotinylated (peptide)
peptide: PSWRRSSLSESENATSLTTF
modifications: biotin at the amino-terminus
B21: FasL C-terminal peptide AA23L-M, biotinylated (peptide)
peptide: SSKSKSSEESQTFFGLYKL
modifications: biotin at the amino-terminus
B22: Fas (CD95) 8-mer competitor peptide RNEIQSLV (unlabeled) (peptide)
peptide: RNEIQSLV
B23: CD46 8-mer competitor peptide REVKFTSL (unlabeled) (peptide)
peptide: REVKFTSL

For one experiment, the target named is GST-LDP (Lim domain protein clp-36) PDZ domain fusion protein. Kind of experiment: A/G plate assays, Table 2 matrix.
In the case of B1, the binding entry is given as “binds”.

Take B2: the binding result is recorded as “binds”.

On to B3, for which the binding result was “binds”.

A further experiment addresses GST-MPP2 PDZ domain fusion protein (Homo sapiens). Kind of experiment: A/G plate assays, Table 2 matrix.
For B4, the binding entry is reported as “binds”.

As for B5, the binding entry was “binds”.

For the molecule B6, the binding result is listed as “binds”.

The target in another experiment is GST-TIP-1 PDZ domain fusion protein (Homo sapiens). The experiment can be described thus: A/G plate assays, Table 2 matrix.
B7: the binding entry is “binds”.

Consider B8, for which the binding result is on record as “binds”.

B9: the binding result is “binds”.

For a further experiment, the target named is GST-DLG1 fusion protein (PDZ domains 1-2) (human). The experiment can be described thus: A/G plate assays, Table 2 matrix.
Take B7: the binding entry is “binds”.

Turning to B10, the binding entry was “binds”.

As to B11, the binding entry is given as “binds”.

For B12, the binding entry is on record as “binds”.

Take B13: the binding result is recorded as “binds”.

As to B3, the binding result is recorded as “binds”.

In the case of B4, the binding result is on record as “binds”.

Consider B14, for which the binding entry is “binds”.

B15: the binding entry is “binds”.

For the molecule B16, the binding result is given as “binds”.

Consider B17, for which the binding result was “binds”.

Take B6: the binding result was “binds”.

As to B18, the binding entry was “binds”.

The next experiment concerns the target GST-NeDLG fusion protein (PDZ domains 1-2) (Mus musculus (Mouse)). The experiment can be described thus: A/G plate assays, Table 2 matrix.
In the case of B1, the binding entry is listed as “binds”.

With B7, the binding result is reported as “binds”.

In the case of B11, the binding result is recorded as “binds”.

Turning to B12, the binding result is on record as “binds”.

On to B2, for which the binding result is on record as “binds”.

B19: the binding entry is listed as “binds”.

As to B13, the binding result was “binds”.

Regarding B3, the binding result is “binds”.

With B4, the binding entry is reported as “binds”.

In the case of B14, the binding result was “binds”.

B15: the binding entry is recorded as “binds”.

With B16, the binding entry is recorded as “binds”.

With B17, the binding result is “binds”.

For the molecule B6, the binding entry is “binds”.

With B9, the binding entry is “binds”.

In the case of B18, the binding result is “binds”.

For the next experiment, the target named is GST-LIMK1 PDZ domain fusion protein (human). The experiment can be described thus: A/G plate assays, Table 2 matrix.
As to B7, the binding entry is on record as “binds”.

The target in another experiment is GST-KIAA0561 PDZ domain fusion protein (human). The experiment can be described thus: A/G plate assays, Table 2 matrix.
On to B20, for which the binding result is recorded as “binds”.

For the molecule B21, the binding result is “binds”.

B16: the binding entry was “binds”.

Another experiment addresses GST-WWP3 (MAGI-1) fusion protein (PDZ domains 1-2) (Homo sapiens). The experiment can be described thus: A/G plate assays, Table 2 matrix.
Take B3: the binding result is listed as “binds”.

On to B17, for which the binding result was “binds”.

B6: the binding result is “binds”.

The target in the next experiment is GST-DLG1 fusion protein (PDZ domains 1-2) (human). The experiment can be described thus: G assay competition on plate-bound GST-DLG1, competitor at 100 uM; blocked ligands: biotinylated Clasp 2 and CD46 (20 uM), Fas and KV1.3 (10 uM) peptides.
Take B22: the binding result is on record as “binds”.

B23: the binding entry is listed as “binds”.

In a further experiment the target is GST-TIP-1 PDZ domain fusion protein (Homo sapiens). Kind of experiment: PRISM MATRIX, told in text.
With B9, the binding result is reported as “binds”.

A further experiment deals with GST-WWP3 (MAGI-1) fusion protein (PDZ domains 1-2) (Homo sapiens). The experiment can be described thus: PRISM MATRIX, told in text.
For the molecule B6, the binding entry was “binds”.

A further experiment has as its target GST-DLG1 fusion protein (PDZ domains 1-2) (human). The experiment can be described thus: G assay: biotinylated peptide on plate-bound GST-PDZ fusion, streptavidin-HRP, OD 450 nm.
With B7, the binding entry was “binds”.

Turning to B11, the binding result was “binds”.

B15: the binding result is given as “binds”.

As to B16, the binding result is given as “binds”.

With B18, the binding result is given as “binds”.

For a further experiment, the target named is GST-NeDLG fusion protein (PDZ domains 1-2) (Mus musculus (Mouse)). The description is as above.
Consider B7, for which the binding entry is “binds”.

B11: the binding entry is reported as “binds”.

For B15, the binding result is reported as “binds”.

For B16, the binding result was “binds”.

Consider B9, for which the binding result is on record as “binds”.

On to B18, for which the binding entry is reported as “binds”.

The next experiment deals with GST-DLG1 fusion protein (PDZ domains 1-2) (human). The experiment can be described thus: A assay and G assay.
For B11, the binding entry was “binds”.

The next experiment shares this target. Kind of experiment: G assay competition, 100 uM competitor against 20 uM labeled Clasp 2 peptide.
Take B22: the binding entry is recorded as “binds”.

B23: the binding result is on record as “binds”.

In a further experiment the target is GST-TIP-1 PDZ domain fusion protein (Homo sapiens). Kind of experiment: G assay on GST-TIP-1 (Tax 1-IP), 20 uM labeled peptide.
Regarding B9, the binding entry was “binds”.

A further experiment deals with GST-LDP (Lim domain protein clp-36) PDZ domain fusion protein. Kind of experiment: A/G assays, told in text.
Turning to B2, the binding entry is listed as “binds”.

With B3, the binding entry is “binds”.

Another experiment has as its target GST-MPP2 PDZ domain fusion protein (Homo sapiens). The experiment can be described thus: A/G assays, told in text.
Take B4: the binding entry is listed as “binds”.

Consider B5, for which the binding entry is on record as “binds”.

With B6, the binding entry is on record as “binds”.

A further experiment deals with GST-TIP-1 PDZ domain fusion protein (Homo sapiens). Kind of experiment: A/G assays, told in text.
As for B7, the binding result is given as “binds”.

In the case of B8, the binding entry is listed as “binds”.

Regarding B9, the binding entry is reported as “binds”.

The target in the next experiment is GST-DLG1 fusion protein (PDZ domains 1-2) (human). The experiment can be described thus: A/G assays, told in text.
As to B7, the binding result is reported as “binds”.

For B10, the binding entry was “binds”.

Consider B11, for which the binding result was “binds”.

As for B12, the binding result is “binds”.

Regarding B13, the binding entry is listed as “binds”.

Turning to B3, the binding entry is listed as “binds”.

With B4, the binding result is on record as “binds”.

In the case of B14, the binding result is “binds”.

As for B15, the binding result is recorded as “binds”.

In the case of B16, the binding result was “binds”.

Consider B6, for which the binding result is “binds”.

Take B18: the binding result is recorded as “binds”.

Another experiment concerns the target GST-NeDLG fusion protein (PDZ domains 1-2) (Mus musculus (Mouse)). Kind of experiment: A/G assays, told in text.
B7: the binding entry is listed as “binds”.

As to B11, the binding entry is “binds”.

As for B12, the binding result is recorded as “binds”.

For B2, the binding entry is on record as “binds”.

Consider B19, for which the binding entry is listed as “binds”.

Take B13: the binding entry is listed as “binds”.

For the molecule B3, the binding entry is listed as “binds”.

For the molecule B4, the binding entry was “binds”.

On to B14, for which the binding result is recorded as “binds”.

On to B15, for which the binding result is reported as “binds”.

Consider B16, for which the binding entry is “binds”.

Regarding B6, the binding entry is given as “binds”.

For the molecule B9, the binding result is reported as “binds”.

Regarding B18, the binding entry was “binds”.

The target of a further experiment is GST-LIMK1 PDZ domain fusion protein (human). Kind of experiment: A/G assays, told in text.
Take B7: the binding entry is “binds”.

Another experiment concerns the target GST-KIAA0561 PDZ domain fusion protein (human). The experiment can be described thus: A/G assays, told in text.
Take B20: the binding entry is recorded as “binds”.

B21: the binding result is “binds”.

In the case of B16, the binding result is “binds”.

For a further experiment, the target named is GST-WWP3 (MAGI-1) fusion protein (PDZ domains 1-2) (Homo sapiens). The experiment can be described thus: A/G assays, told in text.
Take B3: the binding result is on record as “binds”.

For the molecule B6, the binding result was “binds”.

For the next experiment, the target named is GST-TIP-1 PDZ domain fusion protein (Homo sapiens). The experiment can be described thus: G assay, various concentrations of 20-mer peptide on Tax1-IP GST/PDZ fusion.
Turning to B9, the binding entry is “binds”.

A further experiment has as its target GST-DLG1 fusion protein (PDZ domains 1-2) (human). The experiment can be described thus: G assay titration on plate-bound GST-PDZ fusion; GST-alone signal subtracted, normalised to the highest point (P-0050).
Consider B11, for which the binding result is listed as “binds”.

The next experiment addresses GST-NeDLG fusion protein (PDZ domains 1-2) (Mus musculus (Mouse)). The experiment is described as above.
As to B11, the binding entry is on record as “binds”.

Consider B9, for which the binding entry is “binds”.
